# Data as given in PubChem BioAssay AID504444 (National Center for Advancing Translational Sciences (NCATS), 2011).
# “And” between values parts separate entries of the source, which are not always exact repeats. Equal entries are not always repeated. Among all 360,000 compounds or so, about 7,500 (2.1%) were called active. Inconclusive results, whose numbers are uncertain, are shown with a selection of clear calls. Calls come from the whole dose curve; as a rule, active = well fitted inhibition curve with a large enough effect; inconclusive = small, poorly fitted or top-dose-only effect, or effect the other way; inactive = flat fitted curve, though single readings scatter. Where the call is inconclusive, the potency comes from a doubtful curve fit.
# Assay: Nrf2 qHTS screen for inhibitors; note: nearly all actives have a fitted effect of over 60% in size
# Conditions: A549 ARE-Fluc reporter, luciferase luminescence, 18-24 h; activity change, negative = inhibition: at 46 µM (top of the series)
# How it was run: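 In this cell-based qHTS, ARE-driven firefly luciferase in A549 cells reports Nrf2 activity; the luminescent signal after BugLite lysis is the measured value, with a prior CellTiter-Fluor read for cell health.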
# % is set by controls: 0 for no effect and ±100 for the full control effect; potency is the fitted concentration of half-maximal effect.
SMILES,Potency,"activity change, negative = inhibition"
Cc1cc(C)cc(C(=O)Nc2nc3ccccc3[nH]2)c1,"inconclusive: 3.66 µM [activator, partial curve, poor fit]",
O=C(c1ccco1)N1CCN(C(=O)C(Sc2ccccc2)c2ccccc2)CC1 (stereo unspecified),"inconclusive: 25.9 µM [falling, single point]",
O=C(C1=C[C@@H](c2coc3ccccc3c2=O)C[C@@H](OCCCCO)O1)N1CCN(Cc2ccc3c(c2)OCO3)CC1,"inconclusive: 14.6 µM [falling, partial curve]",
CN1\C(=C/C=C/C=C/C=[N+](C)C)C(C)(C)c2ccccc21,"inconclusive: 20.6 µM [falling, single point]",
CCOc1cccc(C(=O)Nc2nc3c(s2)CC(C(C)(C)C)CC3)c1 (stereo unspecified),"inconclusive: 9.2 µM [activator, partial curve]",
CCCCN1C(=O)C(O)(CC(=O)c2ccc(C)cc2C)c2cc(Br)ccc21 (stereo unspecified),active: 25.9 µM,
CC(=O)SC(C[N+](=O)[O-])c1cn(C(C)=O)c2ccccc12 (stereo unspecified),,inactive: 19.2%
O=C(NCc1ccco1)c1ccc2c(c1)N(Cc1ccc(F)cc1)C(=O)c1ccccc1S2(=O)=O,"inconclusive: 4.61 µM [falling, full curve, poor fit]",
Cc1ccc(C(=O)NCC(=O)NC23CC4CC(CC(C4)C2)C3)cc1,"inconclusive: 23.1 µM [activator, single point]",
O=C(Nc1nc2ccc(SC(F)F)cc2s1)c1ccc(NS(=O)(=O)c2ccc(F)c(F)c2)cc1,"inconclusive: 2.59 µM [activator, single point]",
Cc1nn(C)c(C)c1NC(=O)COc1ccc(F)cc1Br,active: 23.1 µM,
CCOc1ccccc1Nc1cc(C)nc2ccc(C)cc12,"inconclusive: 20.6 µM [falling, partial curve, poor fit]",
CCOC(=O)C1CCN(c2ncnc3c2cnn3-c2ccc(Cl)cc2)CC1,active: 2.91 µM,
O=C(COc1cccc2c1CCN(Cc1ccc(Br)cc1)C2=O)NCc1ccco1,"inconclusive: 9.2 µM [falling, partial curve, poor fit]",
CC(C)COc1ccc(C(=O)Nc2cc(-c3ccccc3)no2)cc1,"inconclusive: 3.26 µM [activator, full curve]",
CCOCCCNS(=O)(=O)c1ccc(NC(=O)C2CC(=O)N(c3ccc(C)cc3)C2)cc1 (stereo unspecified),"inconclusive: 23.1 µM [falling, single point]",
Cc1cc(-c2ccccc2)c2nncn2n1,,inactive: -15.4%
COc1ccc(CCNC(=O)c2ccc3c(c2)OCCO3)cc1,"inconclusive: 4.11 µM [activator, full curve]",
Cn1c(CCC(=O)Nc2ccc(N3CCOCC3)cc2)nc(=O)c2ccccc21,"inconclusive: 29.1 µM [activator, single point]",
O=C(CSc1ccc(C(F)(F)F)cc1[N+](=O)[O-])Nc1ccc2ccccc2c1,"inconclusive: 1.64 µM [falling, partial curve, poor fit]",
O=c1c2cc(N3CCOCC3)ccc2[nH]c(=S)n1Cc1cccc(Cl)c1,"inconclusive: 16.4 µM [falling, partial curve, poor fit]",
COCCCNC(=S)N1CCCN(c2nc3cc(C)ccc3cc2C#N)CC1,active: 16.4 µM,

# Ordered by number of heavy atoms (smallest number first): five of the compounds above
SMILES,Potency,"activity change, negative = inhibition"
Cc1cc(C)cc(C(=O)Nc2nc3ccccc3[nH]2)c1,"inconclusive: 3.66 µM [activator, partial curve, poor fit]",
CC(C)COc1ccc(C(=O)Nc2cc(-c3ccccc3)no2)cc1,"inconclusive: 3.26 µM [activator, full curve]",
CCCCN1C(=O)C(O)(CC(=O)c2ccc(C)cc2C)c2cc(Br)ccc21 (stereo unspecified),active: 25.9 µM,
O=C(c1ccco1)N1CCN(C(=O)C(Sc2ccccc2)c2ccccc2)CC1 (stereo unspecified),"inconclusive: 25.9 µM [falling, single point]",
O=C(NCc1ccco1)c1ccc2c(c1)N(Cc1ccc(F)cc1)C(=O)c1ccccc1S2(=O)=O,"inconclusive: 4.61 µM [falling, full curve, poor fit]",

# Further records

SMILES,Potency,"activity change, negative = inhibition"
COc1ccc(NC(=O)C(=S)N2CCCC2)cc1,"inconclusive: 25.9 µM [activator, single point]",
O=c1c2cn[nH]c2nc(SCc2c(F)cccc2F)n1-c1ccc(Cl)cc1,"inconclusive: 29.1 µM [falling, single point]",
O=C(c1ccc2c(c1)OCO2)N1CCN(S(=O)(=O)c2ccc(Cl)cc2)CC1,,inactive: -13%
CCN(CC)c1ccc(/C=C/C(=O)C2C(=O)C=C(C)OC2=O)cc1 (stereo unspecified),"inconclusive: 1.84 µM [activator, full curve]",
Cc1cc(NS(=O)(=O)c2ccc(NC(=O)/C=C/c3ccccc3Cl)cc2)no1,"inconclusive: 29.1 µM [falling, single point]",
O=C(c1cccc(Cl)c1)N1CCC(N2CCC(C(=O)N3CCCC3)CC2)CC1,,inactive: 8.32%
Cc1sc(-c2cc3c([nH]c2=O)CC(c2ccccc2)CC3=O)nc1-c1ccc(Cl)cc1 (stereo unspecified),"inconclusive: 1.03 µM [activator, full curve, poor fit]",
O=C1CC(c2ccc(F)cc2)Sc2ccccc2N1 (stereo unspecified),"inconclusive: 2.91 µM [activator, partial curve]",
Cc1c(C(=O)N2CCOCC2)oc2c1-c1nn(CC(=O)NCc3cccc(Cl)c3)cc1CC2,"inconclusive: 25.9 µM [falling, single point]",
O=C(NNc1nc(Nc2ccccc2)nc(N2CCOCC2)n1)Nc1ccc(Cl)cc1,"inconclusive: 29.1 µM [falling, single point]",
COc1ccc(OCc2cc(C(=O)NCCN3CCCc4ccccc43)no2)c(Cl)c1,,inactive: -19.1%
CN(C)c1ccc(/C=N/N2C(=O)c3ccccc3C2=O)cc1,"inconclusive: 29.1 µM [activator, single point]",
COc1ccc(CCNC(=O)C(=O)NCC2OCCN2S(=O)(=O)c2ccc(OC)cc2)cc1 (stereo unspecified),"inconclusive: 20.6 µM [falling, partial curve]",
OCC1(Cc2cccc(C(F)(F)F)c2)CCN(Cc2cc(F)cc(F)c2)CC1,"inconclusive: 29.1 µM [falling, single point]",
O=S(=O)(Nc1ccccc1O)c1ccc(-c2ccccc2)cc1,"inconclusive: 29.1 µM [falling, single point]",
CCCCS(=O)(=O)c1oc(-c2ccc(F)cc2)nc1S(=O)(=O)c1ccc(C)cc1,"inconclusive: 20.6 µM [falling, single point]",
CC(C)(C)OC(=O)N1CCC(c2c(C(=O)NCCc3ccccc3)cnn2-c2ccc(F)cc2F)CC1,"inconclusive: 4.11 µM [activator, single point]",
Cc1cc(C)c2c(N)c3ccccc3nc2n1,"inconclusive: 20.6 µM [falling, single point]",
COc1cc(Cl)c(C)cc1NC(=O)CC(c1ccc(F)cc1)N1Cc2ccccc2C1=O (stereo unspecified),"inconclusive: 10.3 µM [activator, partial curve]",
OCCNc1nc(-c2cccs2)nc2ccccc12,,inactive: -13.8%
CSc1ncc(C(=O)Nc2ccc(C)cc2C)c(C)n1,"inconclusive: 16.4 µM [falling, single point]",
Cc1ccc(/C=C/C(=O)Nc2ccccc2C(N)=O)o1,"inconclusive: 1.64 µM [activator, full curve]",

SMILES,Potency,"activity change, negative = inhibition"
Cc1cc(C)cc(-n2nnnc2SCC(=O)Nc2nc(-c3ccc(Cl)cc3)cs2)c1,"inconclusive: 23.1 µM [falling, single point]",
CCCCOc1ccc(S(=O)(=O)n2c(C)nc3ccccc32)cc1,active: 7.31 µM,
CCCn1c(=O)c2c(nc3n2CCCN3Cc2ccccc2)n(C)c1=O,"inconclusive: 23.1 µM [falling, partial curve, poor fit]",
CCc1nn2cc(-c3ccccc3)nc2s1,"inconclusive: 2.59 µM [activator, partial curve]",
O=C(NC(=S)N1CCN(c2ccc(C(F)(F)F)cc2[N+](=O)[O-])CC1)c1cccs1,,inactive: -18.6%
CCn1c2ccccc2c2nnc(SCCCn3c(=O)[nH]c4ccccc43)nc21,"inconclusive: 29.1 µM [falling, single point]",
CC(C)(C)c1ccc(C(=O)NCC(c2ccc(Cl)cc2)N2CCOCC2)cc1 (stereo unspecified),"inconclusive: 23.1 µM [falling, single point]",
CCOc1ccc(NS(=O)(=O)c2ccc3c4c(cccc24)C(=O)N3)cc1,"inconclusive: 16.4 µM [falling, partial curve]",
CCn1c(CC(=O)Nc2ccccc2Cl)nnc1SCC(=O)NC1CCCC1,"inconclusive: 0.731 µM [falling, full curve, poor fit]",
COc1ccc(C2=Nn3c(nnc3-c3cccc(OC)c3OC)SC2)c(OC)c1,,inactive: -11.9%
COc1ccc(CCNC(=O)CN2C(=O)NC3(CCCCC3C)C2=O)cc1 (stereo unspecified),,inactive: 4.03%
O=C(CNC(=S)N(Cc1ccccc1)Cc1ccccc1F)NCc1ccccc1,"inconclusive: 23.1 µM [falling, single point]",
O=C(Nc1ncc([N+](=O)[O-])s1)c1cccs1,"inconclusive: 2.91 µM [activator, partial curve, poor fit] and inconclusive: 3.26 µM [activator, partial curve, poor fit]",
CC(C)[C@H](NC(=O)OCc1ccccc1)C(=O)NC(C=O)Cc1ccccc1 (stereo partly specified),,inactive: 2.58%
O=C(O)CCCN1C(=O)C2C3CCC(O3)C2C1=O (stereo unspecified),"inconclusive: 0.461 µM [activator, full curve, poor fit]",
COc1cc(C(=O)O[C@H]2CC(C)=CC[C@@]3(C)CC[C@@](O)(C(C)C)[C@H]23)ccc1O,,inactive: 6.38%
OC[C@@H]1O[C@H](n2cnc3c(SCc4ccccc4)ncnc32)[C@H](O)[C@H]1O,,inactive: 20%
CC(=O)Nc1cccc(N2C(=O)CC(N3CCC(C(=O)N4CCCCC4)CC3)C2=O)c1 (stereo unspecified),,inactive: 4.1%
Cc1ccsc1CNC(=O)c1c(-c2ccccc2)noc1C,,inactive: 3.18%
O=S(=O)(Nc1cccc(S(=O)(=O)N2CCCCC2)c1)c1ccccc1F,"inconclusive: 29.1 µM [falling, single point]",
Cc1ccc(C2(C)NC(=O)N(CC(=O)c3ccc4c(c3)OCCO4)C2=O)cc1 (stereo unspecified),"inconclusive: 41.1 µM [falling, single point]",
COc1cccc(-c2nc(SCC(=O)NC3CCCC3)c(-c3ccc(C)cc3)[nH]2)c1,"inconclusive: 32.6 µM [falling, partial curve, poor fit]",
